PubChem BioAssay AID504786 – Drosophila RNAi Screening Center | 2011
The deposit covers about 21,000 reagents; below is a random part of those with a known target gene and a result. 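Primary screen; positive scores mean lost reporter signal, so the sign may be inverted from the usual convention.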 A plus sign joins genes that one reagent is predicted to hit. No sequences are given here.

- Test: 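Knock-downs reducing HIF reporter induction by the iron chelator DFO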 (primary screen)
- Cell system: Drosophila S2 cells with a stable HIF luciferase reporter
- Reagents: long dsRNA against Drosophila genes, about 0.2 µg dsRNA per well of a 384-well plate
- Time to read-out: three days of knock-down, then 20 h of DFO before reading
- Treatment: desferrioxamine (DFO) at 100 µM, an iron chelator that mimics hypoxia, for 20 h
- Detection: 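HIF reporter luminescence in cells given 100 µM DFO for 20 h, using the mouse ldh-a hypoxia-response element, scored as per-plate z-scores; higher means greater loss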
- Scale: z-score: higher = stronger loss of HIF reporter signal

target,dsRNA,"z-score, replicate 1","z-score, replicate 2","z-score, replicate 3","z-score, replicate 4"
CG9806 (GeneID 31994),DRSC18444,-0.2,-0.8,,
CG32652 (retired record) (GeneID 318141),DRSC18942,-0.3,-0.1,-0.3,-0.2
CG30432 (GeneID 246611),DRSC04833,-0.1,0,,
CG13001 (GeneID 32684),DRSC19520,0,-0.2,-0.5,-0.2
Obp99d (GeneID 43496),DRSC15046,-0.4,0.9,,
CG32023 (GeneID 317827),DRSC08946,-0.2,-0.4,,
cue (GeneID 38174),DRSC08248,-0.3,-0.2,,
grh (GeneID 37038),DRSC05680,-0.5,-0.2,,
grh (GeneID 37038),DRSC05683,0.7,1.6,,
grh (GeneID 37038),DRSC07624,-0.3,-0.4,,
grh (GeneID 37038),DRSC07625,-0.2,-0.3,,
Panx (GeneID 37434),DRSC04563,-0.2,-0.3,,
beat-IIIc (GeneID 35037),DRSC02438,0.1,-0.3,,
beat-IIIc (GeneID 35037),DRSC02949,0,-0.3,,
Rsf1 (GeneID 34370),DRSC03423,0.1,-0.7,,
Gem2 (GeneID 40087),DRSC09721,-0.2,-0.2,,
Or65b (GeneID 318012),DRSC08809,-0.5,-0.5,,
SPoCk (GeneID 40495),DRSC11675,-0.3,-0.1,,
SPoCk (GeneID 40495),DRSC11706,0,0.2,,
SPoCk (GeneID 40495),DRSC11844,-0.3,0.2,,
SPoCk (GeneID 40495),DRSC11845,-0.2,-0.6,,
Tsen34 + Trl,DRSC10014,-0.1,-0.7,,
CG32576 + UQCR-14,DRSC19870,0.8,1.6,,
Atg1 (GeneID 39454),DRSC09809,-0.3,-0.7,,
Atg1 (GeneID 39454),DRSC09810,-0.3,-0.6,,
BckdhA (GeneID 41149),DRSC16395,-0.3,-0.6,,
Jhbp16 (GeneID 42552),DRSC15039,0.6,0.2,,
Polr3C (GeneID 41542),DRSC14490,0.9,0.9,,
CG33695 + cana,DRSC01163,-0.5,-0.1,,
CG33695 + cana,DRSC03503,-0.3,-0.4,,
Spn27A (GeneID 45815),DRSC03608,-0.2,-0.6,,
Osi2 (GeneID 40756),DRSC12174,-0.5,-0.6,,
CG12730 (GeneID 31466),DRSC17885,-0.1,-0.2,,
pes (GeneID 34087),DRSC03033,-0.2,-0.5,,

4 entries from above, arranged by “z-score, replicate 1”, highest first.
target,dsRNA,"z-score, replicate 1","z-score, replicate 2","z-score, replicate 3","z-score, replicate 4"
CG32576 + UQCR-14,DRSC19870,0.8,1.6,,
Atg1 (GeneID 39454),DRSC09809,-0.3,-0.7,,
Atg1 (GeneID 39454),DRSC09810,-0.3,-0.6,,
BckdhA (GeneID 41149),DRSC16395,-0.3,-0.6,,
